Assay results taken from PubChem BioAssay AID2685 (National Center for Advancing Translational Sciences (NCATS), 2010).
This is one part of the list. Shown are side measurements of this screen, not its main read-out; they come without a call. The list favours compounds with an active or inconclusive main result. The note in brackets gives the kind of curve behind each potency; many fits are weak.

Assay: qHTS Assay for Lipid Storage Modulators in Drosophila S3 Cells;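 as to cell number change: cells counted by Cell Tracker Red CMTPX staining in the red channel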
Conditions: BODIPY lipid droplet fluorescence, 18-24 h; for cell number change: measured here: cell count max response, cells fed with added oleic acid
Outline: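 Drosophila S3 cells loaded with oleic acid (400 uM, as added) and compounds at several concentrations; lipid droplets imaged by 488-nm laser-scanning cytometry, 500–530 nm intensity and object ratio to cell channel. Percent activity normalized to 20 uM Triacsin C.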

[1] = measured here: lipid fluorescence (Fed channel) AC50, cells fed with added oleic acid
[2] = measured here: cell number channel AC50, cells fed with added oleic acid

Row | Compound | cell number change | AC50 [1] | AC50 [2]
1 | CCc1ccc(NC(=O)N(CCCN2CCOCC2)Cc2cccs2)cc1 | -8.75% | 0.366 µM [rising, full curve, poor fit] | 
2 | Cn1cc(Br)c(C(=O)NNC(=O)Cc2ccc(Cl)cc2)n1 | 0.952% |  | 0.058 µM [rising, full curve, poor fit]
3 | Nc1c(C(=O)O)cnc2nc(N3CCOCC3)nn12 | -1.9% |  | 0.184 µM [falling, single point]
4 | COC(=O)CCC(=O)Nc1ccc(N=Nc2ccccc2)cc1 | -24.5% |  | 
5 | O=C(Cn1nnc(-c2ccccc2)n1)OC1CCOC1=O (configuration not stated) | 2.07% |  | 
6 | COc1ccccc1-n1cnc2cc(NC(=O)c3ccco3)ccc21 | 53.5% | 0.58 µM [rising, single point] | 1.46 µM [rising, partial curve, poor fit]
7 | O=C(O)Cc1ccc(NS(=O)(=O)c2ccc3ccccc3c2)cc1 | 28% | 25.9 µM [rising, partial curve, poor fit] | 
8 | CCOC(=O)/C=C1\SCC(=O)N1CC(=O)NC(C)C | -9.86% |  | 
9 | O=C(CC1OC(=O)c2ccccc21)NCC1COc2ccccc2O1 (configuration not stated) | 7.09% | 29.1 µM [rising, single point] | 
10 | COCCCNc1ncnc2nc[nH]c12 | -94.7% | 29.1 µM [falling, single point] | 
11 | CCOC(=O)NC(=O)COC(=O)CCCSc1nc2ccccc2s1 |  | 6.51 µM [falling, single point] | 6.51 µM [falling, single point]
12 | CCOc1ccc(C2NC(=O)c3ccccc3O2)cc1 (configuration not stated) | -3.99% |  | 
13 | CCCCCCc1c(O)c2ccccc2[nH]c1=O | -10.5% | 1.16 µM [falling, full curve] | 
14 | Cc1c([N+](=O)[O-])c(C(=O)NC2CCCC2)nn1C | -7.46% |  | 
15 | CC(=O)NNC(=S)Nc1cc(S(=O)(=O)N(C)C)ccc1C | 15.7% |  | 0.0058 µM [rising, full curve, poor fit]
16 | COc1ccccc1NC(=O)CSc1ccc2nnc(-c3ccccn3)n2n1 | 86.9% | 1.64 µM [rising, partial curve] | 1.64 µM [rising, full curve]
17 | Cn1c(N=Nc2ccc(N3CCOCC3)cc2)[n+](C)c2ccccc21 | -12.1% | 18.4 µM [falling, single point] | 
18 | CCN(CC)P(=O)(Nc1ccc(Br)cc1)c1c(C)nn(CCC#N)c1NC(=O)c1ccc(Cl)cc1 (configuration not stated) | -4.76% |  | 
19 | CNc1c(NS(=O)(=O)c2ccc(F)cc2)c(=O)oc2ccccc12 | 2.63% | 35.5 µM [falling, single point] | 
20 | O=C(COC(=O)c1ccco1)Nc1ccccc1[N+](=O)[O-] | 55.9% | 6.51 µM [falling, single point] | 20.6 µM [rising, single point]
21 | Cc1ccccc1-c1cc(C(=O)Nc2sc(C(=O)OC(C)C)c(C)c2C#N)c2ccccc2n1 | -21.7% |  | 0.13 µM [falling, full curve, poor fit]

Reprinted at random: 4 entries already listed
Row | Compound | cell number change | AC50 [1] | AC50 [2]
14 | Cc1c([N+](=O)[O-])c(C(=O)NC2CCCC2)nn1C | -7.46% |  | 
6 | COc1ccccc1-n1cnc2cc(NC(=O)c3ccco3)ccc21 | 53.5% | 0.58 µM [rising, single point] | 1.46 µM [rising, partial curve, poor fit]
15 | CC(=O)NNC(=S)Nc1cc(S(=O)(=O)N(C)C)ccc1C | 15.7% |  | 0.0058 µM [rising, full curve, poor fit]
3 | Nc1c(C(=O)O)cnc2nc(N3CCOCC3)nn12 | -1.9% |  | 0.184 µM [falling, single point]

Additional entries follow.

Row | Compound | cell number change | AC50 [1] | AC50 [2]
22 | CCc1ccc(N2C(=O)c3cc(N4CCOCC4)c([N+](=O)[O-])cc3C2=O)cc1 | -28.3% | 23.1 µM [rising, single point] | 
23 | C=CCn1c(SCC(C)=O)nnc1-c1cc(-c2ccccc2)sc1N | -32.3% | 14.6 µM [falling, single point] | 16.4 µM [falling, partial curve]
24 | O=C(Nn1c(-c2ccccc2)nc2ccccc2c1=O)c1ccco1 | -13.8% | 0.092 µM [rising, full curve, poor fit] | 
25 | O=C(Nc1nnc(COc2ccccc2)s1)c1ccco1 | -31% |  | 16.4 µM [falling, single point]
26 | CCc1cc(C(=O)N(CCCOC)c2c(N)n(Cc3ccccc3)c(=O)[nH]c2=O)sc1C | 2.08% |  | 
27 | COc1ccc(-c2ccc(SCc3cccnc3)nn2)cc1OC | 17.1% | 29.1 µM [rising, single point] | 
28 | NC(N)=N/N=C/c1ccc(OCc2ccccc2)cc1 | -36.8% | 6.51 µM [falling, partial curve, poor fit] | 7.31 µM [falling, full curve, poor fit]
29 | CC(=O)c1c(C)[nH]c(C(=O)Nc2ccc(C)cn2)c1C | -0.706% | 6.51 µM [rising, partial curve] | 0.206 µM [rising, full curve, poor fit]
30 | COCCn1c(C)cc(C(=O)COc2ccc(N(C)S(=O)(=O)c3ccc(C)cc3)cc2)c1C | -17.1% |  | 
31 | Cc1cc(C)c(C(=O)N2CCC(N3CCC(C(=O)NC(C)C)CC3)CC2)o1 | -1.62% |  | 
32 | CC1=C(C)CC(C(=O)c2ccccc2)C(C(=O)O)C1 (configuration not stated) | 75% |  | 29.1 µM [rising, single point]
33 | Cc1cc(O)cc(O)c1C(=O)Cc1cscn1 | -10% | 1.46 µM [falling, partial curve] | 
34 | CCOCCCNC(=O)C(NC(=O)CNC(C)=O)c1ccc(C)cc1 (configuration not stated) | 10.3% | 23.1 µM [falling, single point] | 
35 | CSc1ccc(CN(C)CC(=O)NCCc2ccccc2)cc1 | 8.87% | 18.4 µM [falling, single point] | 
36 | CN(C)c1ccc(-c2noc(-c3ccccc3O)n2)cc1 | 22.1% | 0.0058 µM [falling, full curve, poor fit] | 
37 | C=CCSc1nc(C)c(CCCC)c(=O)[nH]1 | 5.25% | 0.00517 µM [falling, full curve, poor fit] | 
38 | O=C(CNc1ccccc1Cl)c1ccc(Br)cc1 | 4.99% | 29.1 µM [falling, single point] | 
39 | O=C1C2C3C=CC(C3)C2C(=O)N1c1ccccc1OS(=O)(=O)c1ccccc1 (configuration not stated) | 0.57% | 6.51 µM [rising, single point] | 
40 | CN(CCc1ccccn1)C1CCCN(S(=O)(=O)c2ccc(F)c(Cl)c2)C1 (configuration not stated) | 3.76% | 6.51 µM [falling, single point] | 
41 | CCn1c(O)c(N=N)c2ccccc21 | -2.44% |  | 
42 | COC(=O)C1=C(C)N(Cc2ccc(C)cc2)C(=O)/C1=C\c1cc(OC)c(OC)c(OC)c1 | -12.8% | 13 µM [falling, single point] | 

Row | Compound | cell number change | AC50 [1] | AC50 [2]
43 | Cc1cc(NS(=O)(=O)c2ccc(NC(=O)c3cccnc3)cc2)nc(C)n1 | -7.89% |  | 
44 | CCOc1cc(CN2CCN(c3cccc(C(F)(F)F)c3)CC2)ccc1OC | 151% | 20.6 µM [rising, partial curve] | 20.6 µM [rising, partial curve]
45 | CC(C)(C)C1CCc2c(C(=O)N/N=C/c3cccs3)csc2C1 (configuration not stated) | -7.31% | 29.1 µM [falling, single point] | 
46 | CN(CC1CCCO1)S(=O)(=O)c1ccc(C(=O)Nc2ccc(F)cc2)cc1 (configuration not stated) |  | 10.3 µM [falling, partial curve, poor fit] | 
47 | O=C(O)C1(c2ccccc2)CCN(S(=O)(=O)c2ccc(Br)cc2)CC1 | 10.2% |  | 
48 | CC(C)C[C@H](NC(=O)c1nc[nH]c1C(=O)N1CCN(c2ccccc2)CC1)C(=O)OCc1ccccc1 | 11.1% | 10.3 µM [rising, single point] | 
49 | CCOC(=O)N1CCC(NC(=S)Nc2ccc3nc(N4CCN(CC)CC4)cc(C)c3c2)CC1 | 15% | 13 µM [rising, partial curve] | 
50 | CC1=C([N+](=O)[O-])C(c2cccc(Br)c2)C2=C(N1)c1ccccc1C2=O (configuration not stated) | -20.6% | 0.103 µM [rising, full curve, poor fit] | 
51 | CNC(=O)NC(=O)C(C)OC(=O)CCCSc1nc2ccccc2s1 (configuration not stated) | -54.5% | 5.8 µM [falling, full curve] | 0.184 µM [falling, full curve, poor fit]
52 | COc1ccc(NC(=O)C2CCCN(S(=O)(=O)c3ccc4[nH]c(=O)ccc4c3)C2)cc1OC (configuration not stated) | 14% | 6.51 µM [falling, single point] | 
53 | CCSc1nc2sc3c(c2c(=O)n1-c1ccc(C)cc1)CCN(C)C3 | 6.94% | 0.58 µM [falling, single point] | 
54 | FC(F)(F)c1cccc(OCc2nnc3n2CCC3)c1 |  | 2.91 µM [falling, partial curve, poor fit] | 
55 | CCCSC1=C(C#N)C(c2ccc(O)c(OC)c2)CC(=O)N1 (configuration not stated) | -0.368% |  | 
56 | CCOc1ccc(CC(=O)Nc2sc(Cc3ccccc3)cc2C(N)=O)cc1OCC |  | 0.731 µM [rising, partial curve, poor fit] | 
57 | NC(=O)c1ccc(Cn2c(C(=O)c3ccc(Cl)cc3)c3ccccc3[n+]2[O-])cc1 | 9.11% |  | 2.06 µM [falling, single point]
58 | O=C(NCCn1c(C(F)(F)F)nc2ccccc21)[C@H]1CCCN1c1nc(CN2CCCCC2)cs1 | 20.1% | 29.1 µM [rising, single point] | 
59 | O=C(CSc1nnc(CNC(=O)c2c(F)cccc2Cl)o1)NCc1ccccc1 | 21% |  | 
60 | Cc1ccc2c(NC(=S)NC(=O)c3ccccc3)cccc2n1 | -0.348% | 0.731 µM [rising, full curve, poor fit] | 2.06 µM [rising, partial curve]
61 | COc1ccccc1-c1cc(C(=O)NCc2ccc(Cl)cc2)no1 | 21.3% |  | 0.731 µM [rising, single point]
62 | CCNc1nc(NC(C)C)nc(N(C#N)Cc2ccccc2)n1 | -4.69% |  | 
63 | COc1cccc(CN2CCc3ccc(NC(=O)CCc4ccc(C)cc4)cc3C2)c1O | 11.2% | 1.84 µM [rising, partial curve, poor fit] | 
